No constants are given. Whether binding was seen depends on the method and setting. For some assays here: In cells and extracts the contact can be indirect. Some results given as binding are weak or reduced against the parent protein; the word gives no strength. For some assays here: Sequences can lack the tags named with a protein.
Legend:
[1] = molecular target: T1, HA-DrSTING stably expressed in MEF Sting-/- cells (MEF^DrSTING) (Danio rerio); test: co-IP
T1 sequence: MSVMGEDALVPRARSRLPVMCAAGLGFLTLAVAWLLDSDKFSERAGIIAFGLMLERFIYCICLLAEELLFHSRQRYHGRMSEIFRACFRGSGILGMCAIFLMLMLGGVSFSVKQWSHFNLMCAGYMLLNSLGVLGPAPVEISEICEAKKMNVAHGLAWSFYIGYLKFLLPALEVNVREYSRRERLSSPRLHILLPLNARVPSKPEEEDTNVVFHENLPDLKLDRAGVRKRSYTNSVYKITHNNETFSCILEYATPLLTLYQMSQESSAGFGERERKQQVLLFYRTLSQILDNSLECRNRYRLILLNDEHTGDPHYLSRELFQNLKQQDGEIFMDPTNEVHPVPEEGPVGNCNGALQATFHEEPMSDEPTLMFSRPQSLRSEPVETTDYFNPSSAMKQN

[2] = molecular target: T2, HA-MbSTING stably expressed in MEF Sting-/- cells (MEF^MbSTING) (Monosiga brevicollis); test: co-IP
T2 sequence: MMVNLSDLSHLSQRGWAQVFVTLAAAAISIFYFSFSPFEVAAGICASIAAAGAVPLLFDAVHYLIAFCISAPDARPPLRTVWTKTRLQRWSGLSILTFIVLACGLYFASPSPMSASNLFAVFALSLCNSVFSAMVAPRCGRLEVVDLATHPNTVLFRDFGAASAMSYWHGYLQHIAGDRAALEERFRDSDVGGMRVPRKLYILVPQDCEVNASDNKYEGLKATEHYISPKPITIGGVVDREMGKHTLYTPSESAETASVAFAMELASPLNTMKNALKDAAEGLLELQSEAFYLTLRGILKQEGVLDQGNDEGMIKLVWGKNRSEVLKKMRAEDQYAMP

[3] = molecular target: T3, HA-MmSTING stably expressed in MEF Sting-/- cells (MEF^MmSTING) (Mus musculus); test: co-IP
T3 sequence: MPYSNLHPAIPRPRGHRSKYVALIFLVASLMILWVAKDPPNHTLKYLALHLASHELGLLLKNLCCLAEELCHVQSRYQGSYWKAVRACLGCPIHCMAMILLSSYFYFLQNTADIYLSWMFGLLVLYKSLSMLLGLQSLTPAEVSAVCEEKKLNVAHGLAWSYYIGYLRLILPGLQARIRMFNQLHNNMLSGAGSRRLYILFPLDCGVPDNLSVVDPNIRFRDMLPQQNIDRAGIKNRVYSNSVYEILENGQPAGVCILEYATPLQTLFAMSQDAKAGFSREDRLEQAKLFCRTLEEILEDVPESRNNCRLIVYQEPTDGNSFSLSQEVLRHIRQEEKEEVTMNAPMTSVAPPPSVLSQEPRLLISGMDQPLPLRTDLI

[4] = molecular target: HA-NvSTING stably expressed in MEF Sting-/- cells (MEF^NvSTING) (Nematostella vectensis); test: co-IP
[5] = molecular target: T4, HA-XtSTING stably expressed in MEF Sting-/- cells (MEF^XtSTING) (Xenopus tropicalis); test: co-IP
T4 sequence: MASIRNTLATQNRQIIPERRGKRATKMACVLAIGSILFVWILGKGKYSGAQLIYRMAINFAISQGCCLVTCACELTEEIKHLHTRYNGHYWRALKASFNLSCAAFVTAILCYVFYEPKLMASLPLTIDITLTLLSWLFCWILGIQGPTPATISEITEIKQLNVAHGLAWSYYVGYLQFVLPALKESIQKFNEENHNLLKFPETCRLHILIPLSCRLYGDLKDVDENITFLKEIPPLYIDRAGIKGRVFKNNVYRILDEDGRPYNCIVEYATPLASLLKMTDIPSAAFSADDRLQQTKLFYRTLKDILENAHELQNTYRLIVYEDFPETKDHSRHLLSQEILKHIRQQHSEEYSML

[6] = molecular target: T5, MmFADS2-FLAG (fatty acid desaturase 2 of Mus musculus) (Mus musculus); test: co-IP
T5 sequence: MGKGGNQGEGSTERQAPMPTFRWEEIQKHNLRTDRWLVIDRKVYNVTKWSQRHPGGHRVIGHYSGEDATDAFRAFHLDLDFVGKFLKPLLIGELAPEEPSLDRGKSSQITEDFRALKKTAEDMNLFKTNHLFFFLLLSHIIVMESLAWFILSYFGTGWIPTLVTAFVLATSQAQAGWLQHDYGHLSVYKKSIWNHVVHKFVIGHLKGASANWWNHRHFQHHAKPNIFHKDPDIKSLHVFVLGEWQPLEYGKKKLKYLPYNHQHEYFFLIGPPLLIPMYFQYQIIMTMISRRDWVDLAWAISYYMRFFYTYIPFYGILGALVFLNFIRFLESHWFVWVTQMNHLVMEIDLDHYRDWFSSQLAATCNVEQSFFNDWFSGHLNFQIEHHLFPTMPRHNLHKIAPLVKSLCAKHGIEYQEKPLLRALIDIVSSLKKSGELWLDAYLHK

[7] = molecular target: T4, HA-XtSTING stably expressed in MEF Sting-/- cells (MEF^XtSTING) (Xenopus tropicalis); test: native gel or EMSA
[8] = molecular target: T6, XtFADS2-FLAG (FADS2 of Xenopus tropicalis) (Xenopus tropicalis); test: co-IP
T6 sequence: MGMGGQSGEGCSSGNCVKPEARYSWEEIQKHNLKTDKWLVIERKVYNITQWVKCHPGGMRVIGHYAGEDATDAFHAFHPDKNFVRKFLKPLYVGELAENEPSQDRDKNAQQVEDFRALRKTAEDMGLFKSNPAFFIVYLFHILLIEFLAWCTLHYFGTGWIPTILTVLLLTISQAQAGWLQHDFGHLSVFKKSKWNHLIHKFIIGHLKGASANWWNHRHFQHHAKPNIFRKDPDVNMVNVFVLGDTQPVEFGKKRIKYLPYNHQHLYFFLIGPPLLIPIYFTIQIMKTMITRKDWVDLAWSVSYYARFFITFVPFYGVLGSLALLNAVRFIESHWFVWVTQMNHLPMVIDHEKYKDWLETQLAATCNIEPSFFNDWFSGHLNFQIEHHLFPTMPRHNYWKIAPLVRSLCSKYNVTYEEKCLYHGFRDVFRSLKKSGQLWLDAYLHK

B1: endogenous MmFADS2 (fatty acid desaturase 2 of mouse embryonic fibroblasts) (protein, UniProt Q9Z0R9 1-444)
chain: MGKGGNQGEGSTERQAPMPTFRWEEIQKHNLRTDRWLVIDRKVYNVTKWSQRHPGGHRVIGHYSGEDATDAFRAFHLDLDFVGKFLKPLLIGELAPEEPSLDRGKSSQITEDFRALKKTAEDMNLFKTNHLFFFLLLSHIIVMESLAWFILSYFGTGWIPTLVTAFVLATSQAQAGWLQHDYGHLSVYKKSIWNHVVHKFVIGHLKGASANWWNHRHFQHHAKPNIFHKDPDIKSLHVFVLGEWQPLEYGKKKLKYLPYNHQHEYFFLIGPPLLIPMYFQYQIIMTMISRRDWVDLAWAISYYMRFFYTYIPFYGILGALVFLNFIRFLESHWFVWVTQMNHLVMEIDLDHYRDWFSSQLAATCNVEQSFFNDWFSGHLNFQIEHHLFPTMPRHNLHKIAPLVKSLCAKHGIEYQEKPLLRALIDIVSSLKKSGELWLDAYLHK
binding [1]: binds | binding [2]: binds | binding [3]: binds | binding [4]: binds | binding [5]: binds

B2: HA-MmSTING (STING of Mus musculus), expressed in HEK 293T (protein)
chain: MPYSNLHPAIPRPRGHRSKYVALIFLVASLMILWVAKDPPNHTLKYLALHLASHELGLLLKNLCCLAEELCHVQSRYQGSYWKAVRACLGCPIHCMAMILLSSYFYFLQNTADIYLSWMFGLLVLYKSLSMLLGLQSLTPAEVSAVCEEKKLNVAHGLAWSYYIGYLRLILPGLQARIRMFNQLHNNMLSGAGSRRLYILFPLDCGVPDNLSVVDPNIRFRDMLPQQNIDRAGIKNRVYSNSVYEILENGQPAGVCILEYATPLQTLFAMSQDAKAGFSREDRLEQAKLFCRTLEEILEDVPESRNNCRLIVYQEPTDGNSFSLSQEVLRHIRQEEKEEVTMNAPMTSVAPPPSVLSQEPRLLISGMDQPLPLRTDLI
binding [6]: binds

B3: HA-XtSTING stably expressed in MEF Sting-/- cells (MEF^XtSTING) (protein)
chain: MASIRNTLATQNRQIIPERRGKRATKMACVLAIGSILFVWILGKGKYSGAQLIYRMAINFAISQGCCLVTCACELTEEIKHLHTRYNGHYWRALKASFNLSCAAFVTAILCYVFYEPKLMASLPLTIDITLTLLSWLFCWILGIQGPTPATISEITEIKQLNVAHGLAWSYYVGYLQFVLPALKESIQKFNEENHNLLKFPETCRLHILIPLSCRLYGDLKDVDENITFLKEIPPLYIDRAGIKGRVFKNNVYRILDEDGRPYNCIVEYATPLASLLKMTDIPSAAFSADDRLQQTKLFYRTLKDILENAHELQNTYRLIVYEDFPETKDHSRHLLSQEILKHIRQQHSEEYSML
binding [7]: binds

B4: HA-XtSTING (STING of Xenopus tropicalis), expressed in HEK 293T (protein)
chain: MASIRNTLATQNRQIIPERRGKRATKMACVLAIGSILFVWILGKGKYSGAQLIYRMAINFAISQGCCLVTCACELTEEIKHLHTRYNGHYWRALKASFNLSCAAFVTAILCYVFYEPKLMASLPLTIDITLTLLSWLFCWILGIQGPTPATISEITEIKQLNVAHGLAWSYYVGYLQFVLPALKESIQKFNEENHNLLKFPETCRLHILIPLSCRLYGDLKDVDENITFLKEIPPLYIDRAGIKGRVFKNNVYRILDEDGRPYNCIVEYATPLASLLKMTDIPSAAFSADDRLQQTKLFYRTLKDILENAHELQNTYRLIVYEDFPETKDHSRHLLSQEILKHIRQQHSEEYSML
binding [8]: no binding

— paper doi:10.1101/2025.11.17.688879
